Reference: patent US20050282707A1, “Pyridinylisoxazoles and their use as herbicides” (Bayer CropScience GmbH, priority 2004, published 2005)
Some results were stated once for a whole list of compounds, not compound by compound. At least one structure is not confirmed: it was looked up by name or label, or the drawing left a doubt.

Key:
Assay type in all cases: in vivo
[1] = test system: Stellaria media; assay: Post-emergence herbicidal action against weed plants; conditions: three-leaf stage, application rate of 320 g, greenhouse, visual scoring after 3 to 4 weeks
[2] = test system: Sinapis arvensis; assay: as above; conditions: three-leaf stage, application rate of 320 g, greenhouse, visual scoring after 3 to 4 weeks
[3] = test system: Setaria viridis; assay: Pre-emergence herbicidal action; conditions: 320 g of active ingredient or less per hectare, greenhouse, visual scoring after 3 to 4 weeks vs untreated controls
Excerpt: (§1) Seeds of mono- and dicotyledonous weed plants are placed in sandy loam in cardboard pots and covered with soil. The compounds according to the invention, formulated as wettable powders or emulsifiable concentrates, are then applied, in the form of an aqueous suspension or emulsion, at a dosage of 320 g of active ingredient or less per hectare (converted), onto the surface of the covering earth, at an application rate of 600 to 800 l of water per ha (converted). Following treatment, the pots are placed in the greenhouse and maintained under good growth conditions for the weed plants. The visual scoring of the plant damage or emergence damage is made when the test plants have emerged, after an experimental period of 3 to 4 weeks, in comparison to untreated controls.

[4] = test system: Amaranthus retroflexus; assay: Pre-emergence herbicidal action; conditions: 320 g of active ingredient or less per hectare, greenhouse, visual scoring after 3 to 4 weeks vs untreated controls
Excerpt: as §1

Compound | activity against Stellaria media [1] | activity against Sinapis arvensis [2] | activity against Setaria viridis [3] | activity against Amaranthus retroflexus [4]
Cc1nc(Cl)ccc1C(=O)c1cnoc1C1CC1 [1.39] | at least 90% | at least 90% | – | –
Cc1nc(S(C)(=O)=O)ccc1C(=O)C(C#N)C(=O)C1CC1 (centres unmarked) [3.4] | at least 90% | at least 90% | at least 90% | at least 90%
Cc1nc(Cl)ccc1C(=O)C(C#N)C(=O)C1CC1 (centres unmarked) [3.39] | at least 90% | at least 90% | – | –
Cc1nc(Br)ccc1-c1oncc1C(=O)C1CC1 [2.34] | – | – | at least 90% | at least 90%
CSc1ccc(C(=O)c2cnoc2C2CC2)c(C)n1 [1.14] | – | – | at least 90% | at least 90%
Cc1nc(S(C)(=O)=O)ccc1-c1oncc1C(=O)C1CC1 [2.4] | at least 90% | at least 90% | – | –
